# Library screen at single concentrations

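Whole-cell growth test on Mycobacterium tuberculosis, read after 4 days in a medium based on cholesterol and the lipid DPPC; the read-out is not stated. Tested at 50 µM. Higher reads as more growth inhibition (inferred: compounds with an IC50 in retests scored well above the rest). Size under these conditions: about 69,000 compounds, about 370 of them at 50% or above in at least one test.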

Values are the deposited “Percent Effect”, in %. The record does not define 0% and 100%; most values in the screen are far below 50% and negative numbers occur (in some assays of this library far below -100). This is an unselected part of the compounds tested. Two or more numbers in one place are separate tests of the same structure; such repeats can differ widely.

| Compound | percent effect |
|---|---|
| `C=Cc1cccc(CN(Cc2cnn(C)c2)C2CC2)c1` | -4.064 |
| `CCn1nc(CC(C)C)cc1C(=O)N1CCN([C@H]2CCCC[C@@H]2O)CC1` | -5.775 |
| `Cc1ccccc1-n1cnnc1SCC(=O)NCC1CCCO1` (configuration not stated) | -16.12 and 5.254 |
| `CCC1CN(C(=O)c2ccccc2C#N)CCN1C(C)C` (configuration not stated) | -33.54 |
| `O=C(O)C(F)(F)F.O=C(O)C(F)(F)F.O=C1CCC2(CCCN(Cc3nccs3)C2)N1CC1CC1` (configuration not stated) | -22.77 and -12.93 |
| `O=C(O)C(F)(F)F.O=C(O)C(F)(F)F.[H][C@@]12CC(COCc3cccnc3)C[C@@]1([H])N(c1ncc(C)cn1)CCO2` (some centres not stated) | 6.655 |
| `CCN(CCCNC(=O)c1ccc(C)[nH]c1=O)S(C)(=O)=O` | -9.373 |
| `CCc1ccc(S(=O)(=O)N2CCCC3(CCCN3S(C)(=O)=O)C2)cc1` (configuration not stated) | -16.34 |
| `CN(Cc1cccc(C(N)=O)c1)c1ncc(C#N)cc1Cl` | 18.26 |
| `Cc1cc(C)nc(NC(C)Cc2cnccn2)n1` (configuration not stated) | 21.08 |
| `Cc1cccc(S(=O)(=O)NCC(C)(C)CC(C)O)c1C#N` (configuration not stated) | 26.7 |
| `O=C(c1ccon1)N1CCc2ncnc(NCc3cccnc3)c2CC1` | 18.16 |
| `Cl.Cl.O=C(CN1CCN(CC(O)C2CC2)CC1)NCc1ccccc1Cl` (configuration not stated) | -2.993 |
| `CCN(Cc1ccncc1)c1cc(C2CCCNC2)nc(C)n1` (configuration not stated) | 12.15 |
| `O=C(O)C(F)(F)F.O=C1NC2(CCN(c3ncccn3)CC2)CC1c1cccnc1` (configuration not stated) | -3.118 and -5.13 |
| `O=C(NCCCN1CCOCC1)c1nc(-c2ccc3cc[nH]c3c2)no1` | -20.96 |
| `CCN(CC)CCNc1ncc(-c2cc(C)no2)c(-c2ccoc2C)n1` | 0.1453 |
| `Cc1cc(C2CCCN2CCC(=O)N2CCc3sccc3C2)no1` (configuration not stated) | -24.87 |
| `Cc1ccc(NC(=O)N2CCN(C(=O)CC3CCCC3)CC2)s1` | 9.001 |
| `[H][C@]12CC[C@]([H])(CN(Cc3ccc(OC)cc3)C1)N(S(=O)(=O)C1CC1)C2` | 7.694 |
| `CC(CC(=O)N1CCN(c2cnccn2)CC1)c1ccc(F)cc1` (configuration not stated) | -0.6289 |
| `CN(CCc1ccccc1)C(=O)c1cc(CN2CCC(O)CC2)on1` | 17.32 |
| `CS(=O)(=O)NC(=O)c1cnc2c(cnn2C2CCCC2)c1` | 14.11 |
| `CCOCc1ccc(NCc2cnc(N3CCN(C)CC3)nc2)cc1` | -3.334 |
| `O=C(C1CCCO1)N1CCCC2(CCN(c3cccnc3)CC2)C1.O=C(O)C(F)(F)F` (configuration not stated) | 1.409 |
| `CC1(C)CN=C(N2CCN(CC3CCOC3)CC2)S1` (configuration not stated) | -1.588 |
| `O=C(Nc1cc(C2CCOCC2)[nH]n1)c1ccc(Cl)cn1` | 3.102 |
| `Cc1cc(C)n(CC2CCCN2C(=O)c2cnccn2)n1` (configuration not stated) | -38.27 |
| `COc1ccnc(N2CCCN(c3nc(C4CC4)ns3)CC2)n1` | 19.24 |
| `COCCOCC(=O)Nc1ccc(C)cc1Cl` | 6.22 |
| `CC(O)CN1CCC(CNCc2cccc(Br)c2)CC1` (configuration not stated) | -22.76 |
| `Cc1nc(CCCNC(=O)Nc2ccc(F)cc2F)n[nH]1` | -1.902 |
| `CC(=O)N1CCCC(c2cccc(-n3ccnc3)n2)C1` (configuration not stated) | 6.652 |
| `CC(C)(C)C(=O)NCC(=O)NCC1CCCS1` (configuration not stated) | -7.233 |
| `O=C(O)C(F)(F)F.O=C(O)C(F)(F)F.c1cc(CN2CCC3(CC2)COC(COCC2CC2)C3)ccn1` (configuration not stated) | -18.3 |
| `Cc1cc(N2CCC(C(=O)N(C)C)CC2)nc(-c2ccncc2)n1` | -0.6102 |
| `OCc1ccc(CN2CCC(n3cc(-c4ccsc4)nn3)CC2)o1` | -2.934 |
| `Cc1noc2ncnc(N(C)Cc3ccco3)c12` | -0.0642 |
| `O=C(CCc1ccco1)N1CCCC(n2cccn2)C1` (configuration not stated) | 19.78 |
| `O=C(NS(=O)(=O)Cc1ccc(F)cc1)C1CCc2ccccc21` (configuration not stated) | 4.069 |
| `Fc1ccc(CN2CCC(c3n[nH]c4nccnc34)CC2)cc1F` | -6.76 |
| `CC(C)c1nc(C2CCCN(C(=O)c3ccc4nccn4c3)C2)no1` (configuration not stated) | 6.662 |
| `CCC1COCCN1C(=O)NCc1nccn1CC(C)C` (configuration not stated) | 0.02962 |
| `[H][C@@]12COC[C@]1(COCC1CC1)CN(S(=O)(=O)c1cccnc1)C2` | 10.93 |
| `O=c1c2cc3c(cc2nnn1Cc1ccccc1)OCCO3` | 16.39 |
| `CCS(=O)(=O)CCNc1nc(C2CCCC2)nc2c1cnn2C` | -4.161 and -12.86 |
| `O=C1CCCC2=C1C(c1ccc(Cl)cc1Cl)Nc1nonc1N2` (configuration not stated) | -27.68 |
| `COCC(=O)NC[C@H]1OC[C@@H](NC2CCC(F)(F)CC2)[C@@H]1O` | -30.61 |
| `O=C(Cn1cccn1)N1CCC(Oc2ccc(C(F)(F)F)cn2)CC1` | 6.988 |
| `[H][C@@]12COCC[C@]1([H])C[C@H](N(CC(=O)NC)S(=O)(=O)c1ccccc1)C2` | -10.37 |
| `O=C(NC1CC1)C1CN(Cc2ccc3c(c2)OCCO3)CCN1` (configuration not stated) | -0.5319 |
| `CC(C)(C)S(=O)(=O)c1ccc(N2CCC(n3cccn3)CC2)cn1` | -2.383 |
| `NC(=O)N1CCCN(CCCSCc2ccccc2)CC1` | 7.48 |
| `O=C1CCCc2occ(C(=O)N3CCCC(O)(CO)C3)c21` (configuration not stated) | -24.65 |
| `CC(C)c1cc(C(=O)N2CCN(c3ccncc3)CC2)n(C)n1` | -35.66 |
| `COC1COC2(CCN(C(=O)c3ccc4ccccc4c3)CC2)C1` (configuration not stated) | -6.797 |
| `CCn1ncc(-c2nc3c[nH]n(CC)c-3n2)c1C` | -23.99 |
| `CC(=O)Nc1nc(CN(C)CC2CCCN2c2cccnn2)cs1` (configuration not stated) | 0.4931 |
| `O=C(c1ccsc1)N1CCC(c2nnc(C3CC3)o2)CC1` | -19.1 |
| `CC(C)CN1CCNC(=O)C12CCN(C(=O)c1ccccn1)CC2` | -11.4 |
| `CSCC(=O)NCc1cc(Br)ccc1OC(F)F` | -0.806 and -5.596 |
| `CN(Cc1ccncc1)CC(c1cccs1)N1CCOCC1` (configuration not stated) | -8.25 |
| `CC(C)(C)c1nc(CN2CCCC2Cn2cccn2)no1` (configuration not stated) | -12.18 |
| `CCc1cnccc1C(=O)NC1CCN(C(=O)C2CCCCC2)CC1` | 9.621 |
| `CN(C)CCNC(=O)c1cc2n(n1)CCN(C(=O)c1ccco1)C2` | -7.151 and 0.4117 |

For reference, 7 entries once more:

Compound	percent effect
Cc1cc(C2CCCN2CCC(=O)N2CCc3sccc3C2)no1 (configuration not stated)	-24.87
Cc1cc(C)nc(NC(C)Cc2cnccn2)n1 (configuration not stated)	21.08
CCC1COCCN1C(=O)NCc1nccn1CC(C)C (configuration not stated)	0.02962
CC(C)(C)c1nc(CN2CCCC2Cn2cccn2)no1 (configuration not stated)	-12.18
CC(=O)N1CCCC(c2cccc(-n3ccnc3)n2)C1 (configuration not stated)	6.652
[H][C@]12CC[C@]([H])(CN(Cc3ccc(OC)cc3)C1)N(S(=O)(=O)C1CC1)C2	7.694
O=C(O)C(F)(F)F.O=C1NC2(CCN(c3ncccn3)CC2)CC1c1cccnc1 (configuration not stated)	-3.118 and -5.13

Source: ChEMBL document CHEMBL3988442, “University of Dundee, Small-Polar-MMV Screening Library” (2021).